Results taken from patent US10487113B2 (CAREGEN CO., LTD., priority 2014, dated 2019).

Assay: general procedure: peptide synthesis; chloro trityl chloride resin (CTL resin, Nova Biochem Cat No. 01-64-0021)
Settings: whole synthesis; for crude yield: scale of the general procedure 700 mg resin

Substance: H-CPRHFNPVC-OH (cysteine pairing not given here)
- crude mass: 0.7 g
- crude yield: 95%

Substance: H-CTKIYDPVC-OH (cysteine pairing not given here)
- crude mass: 0.5 g
- crude yield: 95%
